# Data: PMC7819943, “Rice protein-binding microarrays: a tool to detect cis-acting elements near promoter regions in rice”
# Some of the results follow.
# Target: T1, OsSMF1 (Oryza sativa, UniProt Q6ZLB0 1-436)
# T1 sequence: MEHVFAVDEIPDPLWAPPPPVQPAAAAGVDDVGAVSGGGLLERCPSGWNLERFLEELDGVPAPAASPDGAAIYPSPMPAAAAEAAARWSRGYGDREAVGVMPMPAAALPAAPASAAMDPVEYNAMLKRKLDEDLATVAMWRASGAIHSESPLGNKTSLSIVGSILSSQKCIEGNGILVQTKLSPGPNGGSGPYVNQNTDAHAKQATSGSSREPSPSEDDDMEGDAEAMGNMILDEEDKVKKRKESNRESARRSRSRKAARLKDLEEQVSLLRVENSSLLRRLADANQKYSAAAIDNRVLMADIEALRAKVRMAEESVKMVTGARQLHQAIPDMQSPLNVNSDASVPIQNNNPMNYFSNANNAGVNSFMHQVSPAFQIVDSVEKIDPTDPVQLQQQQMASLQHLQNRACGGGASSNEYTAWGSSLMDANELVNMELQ
# Experiment: protein-binding microarray (RPBM); PBS, 2% BSA, 51.3 ng/ul salmon testes DNA, 50 uM zinc acetate, 200 nM TF, 25 C, 1 h; high values mean tight binding
# Details: protein: recombinant; tags: N-terminal polyhistidine and DsRed monomer fusion (pET32a); chain copies: 2; label: CyDye5-dUTP incorporated in the synthesized complementary strand; 3' TTTTT single-stranded linker to array surface; dsDNA, one strand shown
# How it was run: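 Per-feature fluorescence intensity (arbitrary units), read on an Axon 4000B scanner, is the binding signal. Transcription factors carrying an N-terminal polyhistidine tag and DsRed fusion were expressed in E. coli BL21-CodonPlus and purified on Ni–NTA. A custom Agilent array, made double-stranded by primer extension with Cy5-dUTP and blocked with 2% BSA, was incubated with 200 nM protein in PBS, 2% BSA, salmon testes DNA and 50 µM zinc acetate at 25 °C for 1 h and then washed.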
row,Sequence,binding signal
1,AACACCTGCCATGCCATGCCACGTACGTGGAGTGGCCACCCGGAGTCACCTAGTGCAG,15400 fluorescence intensity (a.u.)
2,ATATATAAATTTTAGTCATCAGATTTTCTATCATTACAGTCGGAGTCACCTAGTGCAG,3860 fluorescence intensity (a.u.)
3,CTGCCTCTGCCGCCGTCACGCTGAACGCGCCTCACCGGCTCGGAGTCACCTAGTGCAG,3400 fluorescence intensity (a.u.)
4,CATCATAGATCGTTCACACGTCTCAACATCCCAAATTATCCGGAGTCACCTAGTGCAG,3290 fluorescence intensity (a.u.)
5,CTAACTAAGCCGATCTGCATCTTGAAATCTGCTGCACCTTCGGAGTCACCTAGTGCAG,7090 fluorescence intensity (a.u.)
6,GTCCATCGGATCGGGAGCGCGCGGCGAGGCAGGCGGGGTCCGGAGTCACCTAGTGCAG,44300 fluorescence intensity (a.u.)
7,ATGAAAGGTGTACATGATGTGTTCCATATTTCCATGCTGACGGAGTCACCTAGTGCAG,4570 fluorescence intensity (a.u.)
8,TGGGCGGGTGTGTCGGATGTTGACGATGGCGAAGGAGAGGCGGAGTCACCTAGTGCAG,5230 fluorescence intensity (a.u.)
9,ACAGGGTCGCAGTGATGAGCTGCCATCTTTGTACTGTTCCCGGAGTCACCTAGTGCAG,3950 fluorescence intensity (a.u.)
10,ACCCTTGAAGTGGTATGAATGCCATTTTAGTTATTTCGGGCGGAGTCACCTAGTGCAG,6250 fluorescence intensity (a.u.)
11,TCTGCTGATGATCTCTCTCTCTCTCTGTTTCAAAGCTGATCGGAGTCACCTAGTGCAG,44700 fluorescence intensity (a.u.)
12,CGAAACAACCAGTTCCTTCCCACGTCGCACACTCGCACCCCGGAGTCACCTAGTGCAG,4650 fluorescence intensity (a.u.)
13,AGCTAACAAGTTGAGGGACCTTGCGTGTACTCTTTCCTACCGGAGTCACCTAGTGCAG,4780 fluorescence intensity (a.u.)
14,CTCGACACCTCACCCACCTCTCCCATTCTCTCTCCTTCTCCGGAGTCACCTAGTGCAG,5370 fluorescence intensity (a.u.)
15,CAGGGTCAAAGATGCCACGTGGGACAATCTGCCTCCAAAACGGAGTCACCTAGTGCAG,18500 fluorescence intensity (a.u.)
16,ATCTTGTACATTGCACAAATTGACTATTGGTTTGTAGGAGCGGAGTCACCTAGTGCAG,3220 fluorescence intensity (a.u.)
17,GTCGAATCCCGGAGCCCTCGCCATCGCCCACGCCCTCGCGCGGAGTCACCTAGTGCAG,3200 fluorescence intensity (a.u.)
18,GAAAGCGCTGCAACTGCAAGGTTTATAAGGCATGAATCTGCGGAGTCACCTAGTGCAG,3570 fluorescence intensity (a.u.)
19,AAACACTCATGGCCGACACTGATAGAACACGTCAAACTGTCGGAGTCACCTAGTGCAG,3630 fluorescence intensity (a.u.)
20,TGGCTTTGTTAATCTCAAGATATGCTGATGTAAGCGTGTTCGGAGTCACCTAGTGCAG,7340 fluorescence intensity (a.u.)
21,CCCTCAAGGGCTCAAAACACTCAAACAGTTCTACATATATCGGAGTCACCTAGTGCAG,57600 fluorescence intensity (a.u.)
22,AAACCCCATCCCGAACATGGTTAAATGTCAATTTTCTCCACGGAGTCACCTAGTGCAG,11700 fluorescence intensity (a.u.)
23,ATGCACAAGTTTAAAATAGCTATAATATGTTGCGTGGACACGGAGTCACCTAGTGCAG,3990 fluorescence intensity (a.u.)
24,AAGCTCCGTCACGGACAAGTGGGCCCCATTAGCAGCTTCCCGGAGTCACCTAGTGCAG,3490 fluorescence intensity (a.u.)
25,GGAGATGATGAAGCTGGCTAAGTATACCGTCGAAGAGTTCCGGAGTCACCTAGTGCAG,3310 fluorescence intensity (a.u.)
26,CGAATTATGTAATTTGTGTATAAAGTTTGATACGGATCGACGGAGTCACCTAGTGCAG,3220 fluorescence intensity (a.u.)
27,TCGGCTGCCTTTGCGGCCGGCCCGCACGTGACGCGATCGACGGAGTCACCTAGTGCAG,3720 fluorescence intensity (a.u.)

# Pulled one by one from above:
row,Sequence,binding signal
18,GAAAGCGCTGCAACTGCAAGGTTTATAAGGCATGAATCTGCGGAGTCACCTAGTGCAG,3570 fluorescence intensity (a.u.)
5,CTAACTAAGCCGATCTGCATCTTGAAATCTGCTGCACCTTCGGAGTCACCTAGTGCAG,7090 fluorescence intensity (a.u.)
15,CAGGGTCAAAGATGCCACGTGGGACAATCTGCCTCCAAAACGGAGTCACCTAGTGCAG,18500 fluorescence intensity (a.u.)

# Next part

row,Sequence,binding signal
1,GTTCTTTGAGGCCCAAATCACACGGGCCGCCCGTTTCGTCCGGAGTCACCTAGTGCAG,33100 fluorescence intensity (a.u.)
2,GTTTTAATCCCGGTTTTGTCCTACGTGGCTGCTAAATCAGCGGAGTCACCTAGTGCAG,12600 fluorescence intensity (a.u.)
3,ACACACGAGGAGATGCCGCTTTATTGTTGACATGTCATTTCGGAGTCACCTAGTGCAG,3490 fluorescence intensity (a.u.)
4,GCGCATCTCGTCTCGTCGAAGCGAGCGAAACCACACGCGGCGGAGTCACCTAGTGCAG,4560 fluorescence intensity (a.u.)
5,TCGAATGTGCCACATCTCTTTTCTTCTCTCCTGTCTCCTTCGGAGTCACCTAGTGCAG,3900 fluorescence intensity (a.u.)
6,TCGTTTCTGGGCCGGCCCTTCTCCTATCGTACGTGGCTGGCGGAGTCACCTAGTGCAG,6410 fluorescence intensity (a.u.)
7,TAAATTCTTTCTTAGTCATTGTTTTAAGAATGGTTGAGCCCGGAGTCACCTAGTGCAG,5030 fluorescence intensity (a.u.)
8,TCTCAACGACACGACGACATCCGCTTGTATTTCTTTCGTTCGGAGTCACCTAGTGCAG,3560 fluorescence intensity (a.u.)
9,CTGGTGGTCTACTCGCCGATGTCAACGTGCCACCTGCACTCGGAGTCACCTAGTGCAG,3190 fluorescence intensity (a.u.)
10,TATACTTGTTGGCTGCTGCTTTGTGTGTGGTGTGTTGTTTCGGAGTCACCTAGTGCAG,4510 fluorescence intensity (a.u.)
11,TTCCAAGAACAAGGAAGAGGCAAGGACGTGGTGAAGCTTGCGGAGTCACCTAGTGCAG,3190 fluorescence intensity (a.u.)
12,GATGATGACGACGAGTCGACGATGCGCTTGCAAGCCAAACCGGAGTCACCTAGTGCAG,17400 fluorescence intensity (a.u.)
13,AAGCATGGTCTCCTTCGCCATTGCTTTCGCCACTTCGGTCCGGAGTCACCTAGTGCAG,24300 fluorescence intensity (a.u.)
14,CATGAATATTCATGAGTCATAGTTTGCAAGTTTAGGAAAACGGAGTCACCTAGTGCAG,3520 fluorescence intensity (a.u.)
15,TGGGTGATGACGGAGCTAGTCCGCCACCCACGGATCCTCACGGAGTCACCTAGTGCAG,3440 fluorescence intensity (a.u.)
16,TCATTCGCCACATCCGCAAACCCTATAAATCTCCCACCCCCGGAGTCACCTAGTGCAG,4580 fluorescence intensity (a.u.)
17,CCTCCAAGCTTATCATGTCATGTTGGCTTCTTGAATGCACCGGAGTCACCTAGTGCAG,3860 fluorescence intensity (a.u.)
18,AGTTAGGCGTTTCATGAGCCGTCCGATCGTCAAGTAAACGCGGAGTCACCTAGTGCAG,3180 fluorescence intensity (a.u.)
19,TGGTAAGCGGAGCGACGTGGCGCGGAGGAGGATAGAAATGCGGAGTCACCTAGTGCAG,4290 fluorescence intensity (a.u.)
20,ACCCAGCCAATTGACAATTCGATGGTGACTAATGGTGAACCGGAGTCACCTAGTGCAG,4690 fluorescence intensity (a.u.)
21,GAAGTATGTTGTTTGCTTGTGTTTGTGATGCTATATTGTTCGGAGTCACCTAGTGCAG,3500 fluorescence intensity (a.u.)
22,GATGGCCACTGCCACCAGCACTACAATTATGCATATCCCTCGGAGTCACCTAGTGCAG,3340 fluorescence intensity (a.u.)
23,AATATCAATGCACGTGGTTGGTGAAGATTCCATATGGCATCGGAGTCACCTAGTGCAG,3810 fluorescence intensity (a.u.)
24,GAAGAAGATGACATAAGGGGTAGTAATTGGTGTGACTTTTCGGAGTCACCTAGTGCAG,4200 fluorescence intensity (a.u.)
25,GTGAAGGAAATAATTTCATGAGACTGGCTTATTCAGCAGTCGGAGTCACCTAGTGCAG,3920 fluorescence intensity (a.u.)
26,AGTGGCCAATCTACAAATGCGAGTATCAGCCAAGGTGATGCGGAGTCACCTAGTGCAG,3440 fluorescence intensity (a.u.)
27,CCTCGAGCCGAGACGAGACGAGACGGGTTCGTCTCCTTTACGGAGTCACCTAGTGCAG,3180 fluorescence intensity (a.u.)
